Laboratory results published in PMC12256266.
These are yes or no findings as the source states them, for the method shown. Binding seen in cells or lysates may run through a third protein. Here binding means that the protein was enriched with, or labelled near, the bait; the list need not be complete.

Amino acid sequences for entries named in this document (tags omitted).
UniProt P35222: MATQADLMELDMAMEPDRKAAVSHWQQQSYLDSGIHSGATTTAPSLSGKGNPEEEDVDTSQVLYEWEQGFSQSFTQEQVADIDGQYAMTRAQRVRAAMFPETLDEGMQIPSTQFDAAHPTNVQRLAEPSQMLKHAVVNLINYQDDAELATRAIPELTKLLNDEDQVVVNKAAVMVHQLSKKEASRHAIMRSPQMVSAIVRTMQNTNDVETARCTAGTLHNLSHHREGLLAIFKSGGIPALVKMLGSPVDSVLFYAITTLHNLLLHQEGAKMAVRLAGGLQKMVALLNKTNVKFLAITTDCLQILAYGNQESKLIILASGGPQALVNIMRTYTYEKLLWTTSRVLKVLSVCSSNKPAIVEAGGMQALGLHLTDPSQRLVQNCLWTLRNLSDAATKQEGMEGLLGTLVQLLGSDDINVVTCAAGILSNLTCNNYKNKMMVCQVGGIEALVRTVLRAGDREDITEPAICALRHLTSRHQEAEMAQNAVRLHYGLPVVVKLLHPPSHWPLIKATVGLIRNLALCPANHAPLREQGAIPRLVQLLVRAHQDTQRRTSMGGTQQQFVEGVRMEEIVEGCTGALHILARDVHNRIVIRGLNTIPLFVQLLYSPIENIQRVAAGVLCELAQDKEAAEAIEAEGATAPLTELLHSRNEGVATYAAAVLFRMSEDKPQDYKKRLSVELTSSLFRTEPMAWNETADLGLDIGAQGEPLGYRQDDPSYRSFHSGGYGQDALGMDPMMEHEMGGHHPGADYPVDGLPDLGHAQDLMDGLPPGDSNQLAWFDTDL
UniProt Q96DH6: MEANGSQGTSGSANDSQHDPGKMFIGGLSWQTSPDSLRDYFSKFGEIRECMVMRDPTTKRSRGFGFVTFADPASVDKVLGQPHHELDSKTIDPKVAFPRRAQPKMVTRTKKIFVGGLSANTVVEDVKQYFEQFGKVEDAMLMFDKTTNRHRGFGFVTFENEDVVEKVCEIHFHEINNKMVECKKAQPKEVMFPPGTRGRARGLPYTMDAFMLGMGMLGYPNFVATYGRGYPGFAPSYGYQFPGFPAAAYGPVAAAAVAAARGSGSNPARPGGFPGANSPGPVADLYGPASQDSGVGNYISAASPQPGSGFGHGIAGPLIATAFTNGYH

Biological target: β-catenin (human (endogenous in K562, HEL and primary AML cells)) (UniProt P35222)
Experiment: affinity purification with mass spectrometry; β-catenin Co-IP (relative to IgG Co-IP) from cytosolic fractions of K562 and HEL cells, mass spectrometry; also colorectal SW620 cells (Supplementary Fig. S4)

binding: binds
Substance: Musashi-2 (MSI2) (from UniProt Q96DH6 1-328)
